# Source: paper PMC8933506
# These are yes or no findings as the source states them, for the method shown. Binding seen in cells or lysates may run through a third protein. These calls come from enrichment with a bait or labelling near it, and not all partners need be listed.
# B1: NCAPD3 (protein, UniProt P42695 1-1498)
# chain: MVALRGLGSGLQPWCPLDLRLEWVDTVWELDFTETEPLDPSIEAEIIETGLAAFTKLYESLLPFATGEHGSMESIWTFFIENNVSHSTLVALFYHFVQIVHKKNVSVQYREYGLHAAGLYFLLLEVPGSVANQVFHPVMFDKCIQTLKKSWPQESNLNRKRKKEQPKSSQANPGRHRKRGKPPRREDIEMDEIIEEQEDENICFSARDLSQIRNAIFHLLKNFLRLLPKFSLKEKPQCVQNCIEVFVSLTNFEPVLHECHVTQARALNQAKYIPELAYYGLYLLCSPIHGEGDKVISCVFHQMLSVILMLEVGEGSHRAPLAVTSQVINCRNQAVQFISALVDELKESIFPVVRILLQHICAKVVDKSEYRTFAAQSLVQLLSKLPCGEYAMFIAWLYKYSRSSKIPHRVFTLDVVLALLELPEREVDNTLSLEHQKFLKHKFLVQEIMFDRCLDKAPTVRSKALSSFAHCLELTVTSASESILELLINSPTFSVIESHPGTLLRNSSAFSYQRQTSNRSEPSGEINIDSSGETVGSGERCVMAMLRRRIRDEKTNVRKSALQVLVSILKHCDVSGMKEDLWILQDQCRDPAVSVRKQALQSLTELLMAQPRCVQIQKAWLRGVVPVVMDCESTVQEKALEFLDQLLLQNIRHHSHFHSGDDSQVLAWALLTLLTTESQELSRYLNKAFHIWSKKEKFSPTFINNVISHTGTEHSAPAWMLLSKIAGSSPRLDYSRIIQSWEKISSQQNPNSNTLGHILCVIGHIAKHLPKSTRDKVTDAVKCKLNGFQWSLEVISSAVDALQRLCRASAETPAEEQELLTQVCGDVLSTCEHRLSNIVLKENGTGNMDEDLLVKYIFTLGDIAQLCPARVEKRIFLLIQSVLASSADADHSPSSQGSSEAPASQPPPQVRGSVMPSVIRAHAIITLGKLCLQHEDLAKKSIPALVRELEVCEDVAVRNNVIIVMCDLCIRYTIMVDKYIPNISMCLKDSDPFIRKQTLILLTNLLQEEFVKWKGSLFFRFVSTLIDSHPDIASFGEFCLAHLLLKRNPVMFFQHFIECIFHFNNYEKHEKYNKFPQSEREKRLFSLKGKSNKERRMKIYKFLLEHFTDEQRFNITSKICLSILACFADGILPLDLDASELLSDTFEVLSSKEIKLLAMRSKPDKDLLMEEDDMALANVVMQEAQKKLISQVQKRNFIENIIPIIISLKTVLEKNKIPALRELMHYLREVMQDYRDELKDFFAVDKQLASELEYDMKKYQEQLVQEQELAKHADVAGTAGGAEVAPVAQVALCLETVPVPAGQENPAMSPAVSQPCTPRASAGHVAVSSPTPETGPLQRLLPKARPMSLSTIAILNSVKKAVESKSRHRSRSLGVLPFTLNSGSPEKTCSQVSSYSLEQESNGEIEHVTKRAISTPEKSISDVTFGAGVSYIGTPRTPSSAKEKIEGRSQGNDILCLSLPDKPPPQPQQWNVRSPARNKDTPACSRRSLRKTPLKTAN
# Target: K258R mutant HIV-1 IN (integrase), N-terminally HA-tagged (HIV-1)
# Test: affinity purification with mass spectrometry; HA-IN (WT or K258R) expressed 24 h in HEK293T; NP-40 lysis buffer (20 mM Tris HCl pH 8, 137 mM NaCl, 2 mM EDTA, 1% NP-40); HA-coated magnetic beads overnight at 4 °C; hits against an empty HA-vector control
binder,measurement,value
B1,binding,binds
